{
  "sequences": {"note": "By UniProt entry, the sequences of proteins in these tests, tags left out.", "UniProt P04150": "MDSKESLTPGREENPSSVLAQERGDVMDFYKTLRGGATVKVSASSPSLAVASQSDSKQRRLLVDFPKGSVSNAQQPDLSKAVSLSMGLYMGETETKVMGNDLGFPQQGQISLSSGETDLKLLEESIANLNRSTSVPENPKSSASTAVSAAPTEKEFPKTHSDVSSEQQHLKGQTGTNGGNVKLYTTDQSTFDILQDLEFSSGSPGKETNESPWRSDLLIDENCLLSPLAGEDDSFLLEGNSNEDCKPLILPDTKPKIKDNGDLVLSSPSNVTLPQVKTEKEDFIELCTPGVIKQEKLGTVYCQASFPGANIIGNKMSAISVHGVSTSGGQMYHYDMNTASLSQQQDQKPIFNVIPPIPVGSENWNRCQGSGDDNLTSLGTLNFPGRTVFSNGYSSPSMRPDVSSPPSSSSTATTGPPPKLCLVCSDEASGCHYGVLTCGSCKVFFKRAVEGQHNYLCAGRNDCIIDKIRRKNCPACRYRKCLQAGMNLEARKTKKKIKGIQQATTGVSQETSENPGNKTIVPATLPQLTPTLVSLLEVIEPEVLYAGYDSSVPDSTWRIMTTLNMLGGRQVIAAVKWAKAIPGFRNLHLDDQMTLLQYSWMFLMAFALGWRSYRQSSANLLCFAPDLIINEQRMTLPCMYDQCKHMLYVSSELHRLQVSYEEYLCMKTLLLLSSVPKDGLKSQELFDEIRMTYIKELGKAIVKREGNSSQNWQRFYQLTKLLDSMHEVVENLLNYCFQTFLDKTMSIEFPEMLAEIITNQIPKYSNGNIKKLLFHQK", "UniProt P08235": "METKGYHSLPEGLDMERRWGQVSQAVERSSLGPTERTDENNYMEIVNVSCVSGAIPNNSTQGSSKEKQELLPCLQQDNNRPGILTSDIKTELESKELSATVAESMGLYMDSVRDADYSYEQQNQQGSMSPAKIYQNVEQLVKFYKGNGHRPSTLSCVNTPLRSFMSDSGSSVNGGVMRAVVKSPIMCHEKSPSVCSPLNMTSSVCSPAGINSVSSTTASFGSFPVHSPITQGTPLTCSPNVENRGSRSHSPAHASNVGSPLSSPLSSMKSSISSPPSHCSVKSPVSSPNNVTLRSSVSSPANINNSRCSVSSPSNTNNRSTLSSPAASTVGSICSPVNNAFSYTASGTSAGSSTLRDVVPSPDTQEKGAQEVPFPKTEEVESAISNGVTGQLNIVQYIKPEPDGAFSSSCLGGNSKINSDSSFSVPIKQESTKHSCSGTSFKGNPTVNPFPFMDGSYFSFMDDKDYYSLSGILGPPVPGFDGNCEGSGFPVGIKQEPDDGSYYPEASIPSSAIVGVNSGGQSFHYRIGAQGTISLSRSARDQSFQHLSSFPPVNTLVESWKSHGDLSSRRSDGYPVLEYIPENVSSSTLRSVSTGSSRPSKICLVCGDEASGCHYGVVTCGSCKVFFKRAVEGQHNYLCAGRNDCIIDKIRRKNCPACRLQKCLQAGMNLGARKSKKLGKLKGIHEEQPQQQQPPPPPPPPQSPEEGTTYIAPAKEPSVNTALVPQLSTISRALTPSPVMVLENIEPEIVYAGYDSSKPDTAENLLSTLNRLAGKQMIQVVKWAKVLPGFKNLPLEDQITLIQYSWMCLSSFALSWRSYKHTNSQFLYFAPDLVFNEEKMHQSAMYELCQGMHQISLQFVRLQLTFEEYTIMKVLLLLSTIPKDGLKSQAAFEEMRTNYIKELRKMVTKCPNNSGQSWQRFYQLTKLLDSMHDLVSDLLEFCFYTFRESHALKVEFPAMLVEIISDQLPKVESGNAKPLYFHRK", "UniProt P10275": "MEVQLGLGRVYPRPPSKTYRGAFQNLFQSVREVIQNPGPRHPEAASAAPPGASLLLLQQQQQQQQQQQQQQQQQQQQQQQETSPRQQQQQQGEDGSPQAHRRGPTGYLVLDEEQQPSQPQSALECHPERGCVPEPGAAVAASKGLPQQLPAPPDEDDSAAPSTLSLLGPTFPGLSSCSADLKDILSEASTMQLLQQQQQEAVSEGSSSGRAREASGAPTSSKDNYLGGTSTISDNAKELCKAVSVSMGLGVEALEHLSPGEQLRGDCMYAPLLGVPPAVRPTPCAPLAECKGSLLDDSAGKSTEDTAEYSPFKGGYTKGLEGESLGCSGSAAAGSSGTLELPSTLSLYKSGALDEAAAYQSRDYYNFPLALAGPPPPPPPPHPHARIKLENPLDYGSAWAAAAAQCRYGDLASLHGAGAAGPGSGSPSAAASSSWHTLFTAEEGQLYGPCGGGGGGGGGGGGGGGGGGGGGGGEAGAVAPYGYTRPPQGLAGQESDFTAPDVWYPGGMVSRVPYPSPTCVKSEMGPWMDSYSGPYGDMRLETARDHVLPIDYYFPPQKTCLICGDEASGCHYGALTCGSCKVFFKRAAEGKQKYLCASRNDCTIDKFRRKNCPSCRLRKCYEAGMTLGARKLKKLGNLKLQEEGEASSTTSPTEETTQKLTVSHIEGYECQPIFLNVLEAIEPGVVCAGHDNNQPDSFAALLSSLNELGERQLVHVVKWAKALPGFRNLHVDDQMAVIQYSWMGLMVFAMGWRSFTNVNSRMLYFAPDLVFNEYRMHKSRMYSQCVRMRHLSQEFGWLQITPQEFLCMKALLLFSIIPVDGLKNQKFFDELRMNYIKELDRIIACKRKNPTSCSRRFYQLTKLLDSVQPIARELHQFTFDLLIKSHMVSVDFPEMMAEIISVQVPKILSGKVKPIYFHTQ", "UniProt P06401": "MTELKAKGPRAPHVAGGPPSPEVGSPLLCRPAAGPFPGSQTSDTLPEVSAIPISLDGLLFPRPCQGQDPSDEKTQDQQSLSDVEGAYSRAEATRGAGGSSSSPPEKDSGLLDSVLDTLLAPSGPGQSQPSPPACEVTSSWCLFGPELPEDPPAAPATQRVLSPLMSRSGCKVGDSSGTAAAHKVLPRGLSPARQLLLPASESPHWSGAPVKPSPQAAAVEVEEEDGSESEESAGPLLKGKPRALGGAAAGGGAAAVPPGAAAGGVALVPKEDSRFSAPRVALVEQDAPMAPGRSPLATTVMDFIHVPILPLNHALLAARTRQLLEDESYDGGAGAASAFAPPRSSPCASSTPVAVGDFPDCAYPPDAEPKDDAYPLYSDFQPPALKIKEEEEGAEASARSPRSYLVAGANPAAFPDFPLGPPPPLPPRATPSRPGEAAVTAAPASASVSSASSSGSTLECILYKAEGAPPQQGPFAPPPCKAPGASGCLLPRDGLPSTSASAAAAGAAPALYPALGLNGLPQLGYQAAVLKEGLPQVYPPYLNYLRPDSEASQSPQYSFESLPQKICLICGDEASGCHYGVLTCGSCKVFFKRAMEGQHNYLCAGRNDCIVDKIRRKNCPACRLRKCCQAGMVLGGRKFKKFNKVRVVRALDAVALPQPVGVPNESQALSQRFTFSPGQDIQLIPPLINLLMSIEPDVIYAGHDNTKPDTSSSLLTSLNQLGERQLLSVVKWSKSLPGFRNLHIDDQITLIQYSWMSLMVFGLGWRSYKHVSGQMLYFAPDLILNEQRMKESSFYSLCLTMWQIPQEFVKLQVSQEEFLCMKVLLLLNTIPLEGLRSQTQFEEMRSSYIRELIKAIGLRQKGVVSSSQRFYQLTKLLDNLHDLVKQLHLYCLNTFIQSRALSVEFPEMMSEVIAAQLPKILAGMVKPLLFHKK", "UniProt Q08752": "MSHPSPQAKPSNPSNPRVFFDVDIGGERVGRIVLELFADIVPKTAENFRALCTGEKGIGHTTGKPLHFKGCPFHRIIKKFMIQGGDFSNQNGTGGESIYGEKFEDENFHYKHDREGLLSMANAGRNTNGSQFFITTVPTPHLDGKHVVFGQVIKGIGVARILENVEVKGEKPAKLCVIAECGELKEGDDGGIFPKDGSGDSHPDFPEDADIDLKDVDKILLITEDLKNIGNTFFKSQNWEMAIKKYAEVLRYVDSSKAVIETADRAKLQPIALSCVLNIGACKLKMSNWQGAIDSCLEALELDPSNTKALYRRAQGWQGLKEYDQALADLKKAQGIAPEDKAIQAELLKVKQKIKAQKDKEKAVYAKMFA"},
  "source": "paper PMC2908686",
  "key": {"[1]": {"biological_target": "glucocorticoid receptor (GR), N-terminally HA-tagged (UniProt P04150)", "assay": "co-IP; HEK-293 co-expressing an HA-tagged steroid receptor and a FLAG-tagged TPR protein, steroid-free serum; Lysis-Buffer A' (130 mM NaCl, 20 mM Na2MoO4, 20 mM Tris-HCl pH 7.5, 0.5% Triton X-100); receptor precipitated on anti-HA agarose overnight at 4°C, HA-peptide elution; co-precipitated TPR proteins by FLAG immunoblot, densitometry"}, "[2]": {"biological_target": "mineralocorticoid receptor (MR), N-terminally HA-tagged (UniProt P08235)", "assay": "co-IP; HEK-293 co-expressing an HA-tagged steroid receptor and a FLAG-tagged TPR protein, steroid-free serum; Lysis-Buffer A' (130 mM NaCl, 20 mM Na2MoO4, 20 mM Tris-HCl pH 7.5, 0.5% Triton X-100); receptor precipitated on anti-HA agarose overnight at 4°C, HA-peptide elution; co-precipitated TPR proteins by FLAG immunoblot, densitometry"}, "[3]": {"biological_target": "androgen receptor (AR), N-terminally HA-tagged (UniProt P10275)", "assay": "co-IP; HEK-293 co-expressing an HA-tagged steroid receptor and a FLAG-tagged TPR protein, steroid-free serum; Lysis-Buffer A' (130 mM NaCl, 20 mM Na2MoO4, 20 mM Tris-HCl pH 7.5, 0.5% Triton X-100); receptor precipitated on anti-HA agarose overnight at 4°C, HA-peptide elution; co-precipitated TPR proteins by FLAG immunoblot, densitometry"}, "[4]": {"biological_target": "progesterone receptor (PR), N-terminally HA-tagged (UniProt P06401)", "assay": "co-IP; HEK-293 co-expressing an HA-tagged steroid receptor and a FLAG-tagged TPR protein, steroid-free serum; Lysis-Buffer A' (130 mM NaCl, 20 mM Na2MoO4, 20 mM Tris-HCl pH 7.5, 0.5% Triton X-100); receptor precipitated on anti-HA agarose overnight at 4°C, HA-peptide elution; co-precipitated TPR proteins by FLAG immunoblot, densitometry"}, "[5]": {"biological_target": "T1, FK506 binding protein 52 (FKBP52), C-terminal FLAG fusion (UniProt Q02790)", "T1 sequence": "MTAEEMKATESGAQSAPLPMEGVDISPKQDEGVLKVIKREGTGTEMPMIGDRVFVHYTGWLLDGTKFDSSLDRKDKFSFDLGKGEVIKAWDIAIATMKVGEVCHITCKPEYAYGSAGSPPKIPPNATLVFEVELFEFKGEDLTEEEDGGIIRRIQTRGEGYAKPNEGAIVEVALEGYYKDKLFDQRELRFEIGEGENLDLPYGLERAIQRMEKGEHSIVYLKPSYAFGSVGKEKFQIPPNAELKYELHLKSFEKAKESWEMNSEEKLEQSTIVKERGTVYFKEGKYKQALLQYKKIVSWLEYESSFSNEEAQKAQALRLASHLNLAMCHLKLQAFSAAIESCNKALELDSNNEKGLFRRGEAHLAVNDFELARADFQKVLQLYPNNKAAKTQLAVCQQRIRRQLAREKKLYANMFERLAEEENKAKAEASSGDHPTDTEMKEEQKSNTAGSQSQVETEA", "assay": "co-IP; same FLAG-IPs of the TPR proteins from HEK-293 lysates; co-precipitated endogenous Hsp90 and Hsp70 by Coomassie staining (Hsp70 background on the resin subtracted), p23 by immunoblot; normalized to the precipitated TPR cofactor; experiments with different steroid receptors pooled"}, "[6]": {"biological_target": "T2, protein phosphatase 5 (PP5), C-terminal FLAG fusion (UniProt P53041)", "T2 sequence": "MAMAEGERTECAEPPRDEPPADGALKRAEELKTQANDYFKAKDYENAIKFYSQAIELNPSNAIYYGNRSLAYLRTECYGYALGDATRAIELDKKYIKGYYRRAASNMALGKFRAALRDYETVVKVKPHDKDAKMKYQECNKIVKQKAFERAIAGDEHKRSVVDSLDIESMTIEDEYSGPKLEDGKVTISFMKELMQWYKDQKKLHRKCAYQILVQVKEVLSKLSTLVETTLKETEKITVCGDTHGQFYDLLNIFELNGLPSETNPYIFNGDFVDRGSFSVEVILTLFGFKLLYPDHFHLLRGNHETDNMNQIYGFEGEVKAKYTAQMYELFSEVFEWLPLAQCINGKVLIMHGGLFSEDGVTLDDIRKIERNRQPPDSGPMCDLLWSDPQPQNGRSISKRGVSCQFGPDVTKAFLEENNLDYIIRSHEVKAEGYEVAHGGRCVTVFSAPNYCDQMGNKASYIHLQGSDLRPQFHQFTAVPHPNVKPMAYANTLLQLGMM", "assay": "co-IP; same FLAG-IPs of the TPR proteins from HEK-293 lysates; co-precipitated endogenous Hsp90 and Hsp70 by Coomassie staining (Hsp70 background on the resin subtracted), p23 by immunoblot; normalized to the precipitated TPR cofactor; experiments with different steroid receptors pooled"}, "[7]": {"biological_target": "T3, FK506 binding protein 51 (FKBP51), C-terminal FLAG fusion, Q13451", "T3 chain": "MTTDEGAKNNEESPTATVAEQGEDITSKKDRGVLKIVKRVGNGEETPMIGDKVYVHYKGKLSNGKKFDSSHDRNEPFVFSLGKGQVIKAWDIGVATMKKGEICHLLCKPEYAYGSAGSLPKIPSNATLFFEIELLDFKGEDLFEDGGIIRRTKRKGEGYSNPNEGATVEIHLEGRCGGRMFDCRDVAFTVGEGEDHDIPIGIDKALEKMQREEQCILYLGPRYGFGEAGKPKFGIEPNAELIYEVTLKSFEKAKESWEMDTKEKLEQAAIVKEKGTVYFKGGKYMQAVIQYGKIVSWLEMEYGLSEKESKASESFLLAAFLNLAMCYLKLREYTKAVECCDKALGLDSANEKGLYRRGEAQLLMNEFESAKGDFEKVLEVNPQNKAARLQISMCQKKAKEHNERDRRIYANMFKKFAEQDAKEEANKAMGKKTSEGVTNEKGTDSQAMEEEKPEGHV", "assay": "co-IP; same FLAG-IPs of the TPR proteins from HEK-293 lysates; co-precipitated endogenous Hsp90 and Hsp70 by Coomassie staining (Hsp70 background on the resin subtracted), p23 by immunoblot; normalized to the precipitated TPR cofactor; experiments with different steroid receptors pooled", "details": "remark: other sources report otherwise"}},
  "note": "These are yes or no findings as the source states them, for the method shown. In cells and extracts the contact can be indirect. Some binding calls cover weakened binding; strength is not graded here. For some of these results: Where a sequence is shown, tags or fusion partners need not be part of it.",
  "data": [
    {"molecule": "Cyclophillin-40 (Cyp40), C-terminal FLAG fusion (from UniProt Q08752 1-370)", "values": [
      {"measurement": "binding", "setting": "[1]", "value": "binds weakly"},
      {"measurement": "binding", "setting": "[2]", "value": "binds weakly"},
      {"measurement": "binding", "setting": "[3]", "value": "binds weakly"},
      {"measurement": "binding", "setting": "[4]", "value": "binds weakly"}
    ]},
    {"molecule": "p23, endogenous (protein, UniProt Q15185 1-160) MQPASAKWYDRRDYVFIEFCVEDSKDVNVNFEKSKLTFSCLGGSDNFKHLNEIDLFHCIDPNDSKHKRTDRSILCCLRKGESGQSWPRLTKERAKLNWLSVDFNNWKDWEDDSDEDMSNFDRFSEMMNNMGGDEDVDLPEVDGADDDSQDSDDEKMPDLE", "values": [
      {"measurement": "binding", "setting": "[5]", "value": "binds"},
      {"measurement": "binding", "setting": "[6]", "value": "binds"}
    ]},
    {"molecule": "p23, endogenous, Q15185 1-160 (protein) MQPASAKWYDRRDYVFIEFCVEDSKDVNVNFEKSKLTFSCLGGSDNFKHLNEIDLFHCIDPNDSKHKRTDRSILCCLRKGESGQSWPRLTKERAKLNWLSVDFNNWKDWEDDSDEDMSNFDRFSEMMNNMGGDEDVDLPEVDGADDDSQDSDDEKMPDLE", "values": [
      {"measurement": "binding", "setting": "[7]", "value": "binds"}
    ]}
  ]
}
